Data as given in publication PMC4697166.
No constants are given. Whether binding was seen depends on the method and setting. In cells and extracts the contact can be indirect. Some binding calls cover weakened binding; strength is not graded here. Where a sequence is shown, tags or fusion partners need not be part of it.

Chains of the proteins cited; added tags and fusions are not shown.
UniProt P32121: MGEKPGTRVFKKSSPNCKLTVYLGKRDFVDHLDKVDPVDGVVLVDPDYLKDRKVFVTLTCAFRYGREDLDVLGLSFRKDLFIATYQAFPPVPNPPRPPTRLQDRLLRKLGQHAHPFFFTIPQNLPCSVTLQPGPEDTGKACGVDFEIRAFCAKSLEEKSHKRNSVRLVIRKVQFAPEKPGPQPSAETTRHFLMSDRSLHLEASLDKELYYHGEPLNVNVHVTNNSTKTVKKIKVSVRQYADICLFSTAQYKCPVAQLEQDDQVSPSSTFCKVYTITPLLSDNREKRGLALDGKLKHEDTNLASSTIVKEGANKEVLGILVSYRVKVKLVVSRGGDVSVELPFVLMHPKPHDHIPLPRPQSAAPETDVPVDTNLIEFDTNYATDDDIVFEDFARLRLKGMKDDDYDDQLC

Molecular target: T1, human free fatty acid 2 receptor with enhanced yellow fluorescent protein fused to its C terminus (human) (UniProt O15552)
T1 sequence: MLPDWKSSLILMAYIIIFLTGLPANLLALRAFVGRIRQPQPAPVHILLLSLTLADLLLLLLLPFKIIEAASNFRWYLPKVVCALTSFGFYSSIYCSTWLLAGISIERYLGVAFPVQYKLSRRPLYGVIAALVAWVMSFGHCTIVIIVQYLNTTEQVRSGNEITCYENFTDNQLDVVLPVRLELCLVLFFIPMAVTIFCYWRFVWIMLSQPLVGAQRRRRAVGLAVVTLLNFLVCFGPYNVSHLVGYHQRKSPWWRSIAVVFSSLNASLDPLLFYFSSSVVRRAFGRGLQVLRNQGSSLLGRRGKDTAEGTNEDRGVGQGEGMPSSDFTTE
Assay: FRET or BRET; HEK293T cells co-transfected 4:1 with eYFP-tagged receptor and β-arrestin-2 Renilla luciferase; Hanks' balanced salt solution, 37 °C; coelenterazine h 2.5 μM; agonist (C3 or Cmp 1) added for 10 min, with or without pre-incubation with antagonist (GLPG0974, CATPB and others); ratio of luminescence at 535 and 475 nm

With “β-arrestin-2 Renilla luciferase (from UniProt P32121 1-409)” the binding was “binds”.
